Results are given in words; binding and its absence hold for the method and conditions named. Some binding calls cover weakened binding; strength is not graded here. Where a sequence is shown, tags or fusion partners need not be part of it.
B1: GBF1 (recombinant anti-GM2AP antibody, 21-2B5-F8 LC/21-2B5-F7 HC) (antibody, V domains shown)
VH: EIQLQQSGAELVRPGTSVKISCMASGYSFTGYNMNWVRQSHGRSLEWIGNINPYFGSPNYNQKFKGKATLTLDRSSNTAYMQLNRVTSEDSAVYYCASRQLGLGDTMDYWGQGTSVTVSS
VL: DIVMTQTASSVYVTPGESVSISCRSTKSLLHSNGDTYLYWFLQRPGQSPQLLIYRMSNLAPGVPDRFSGGGSGTAFTLRISRVEAEDVGVYYCMQHLEYPFTFGAGTKLE
B2: GEC3 (recombinant anti-GM2AP antibody, 21-4E3-C81 LC/21-4E3-C82 HC) (antibody, V domains shown)
VH: QIQLQQSGPELGKPGASVKISCKASDYTFTDFYISWVKQRPGQGLEWIGWIYPLDDHTKYNEKFKGKATLTVDISSNTVYMQLSSLTSEDSAVYFCARIYGYAMDYWGQGTSVTVSS
VL: DIVMTQSHKFMSTSVGDRVTITCKASQDVSTAVGWYQQKPGQSPKLLIYWASTRHTGVPDRFTGSRFGTDYTLTISSVQAEDLALYYCQQHYITPWTFGGGTKLE

Target: T1, recombinant GM2AP (GM2-activator protein tagged with eight histidines, SEQ ID NO: 3) (human) (UniProt P17900)
T1 sequence: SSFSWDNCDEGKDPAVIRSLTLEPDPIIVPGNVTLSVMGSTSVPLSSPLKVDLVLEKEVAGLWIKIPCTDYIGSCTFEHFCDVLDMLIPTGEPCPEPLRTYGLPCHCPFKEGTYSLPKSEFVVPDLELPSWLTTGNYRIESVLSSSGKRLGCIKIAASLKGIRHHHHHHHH
Experiment: sandwich ELISA, GBF1 coated as capture, HRP-GEC3 as detection, recombinant GM2AP in 2-fold serial dilution

Binder	binding
B1	binds
B2	binds

Reference: patent US20240218078A1
